The target in test [1] is FLCN-FNIP1 complex (wild-type FNIP1) (human) (UniProt Q8NFG4+Q8TF40). The test can be described thus: co-immunoprecipitation.
Test [2] concerns the target T1, Human FLCN WT, C-terminal FLAG tag (human) (UniProt Q8NFG4).
T1 sequence (looked up): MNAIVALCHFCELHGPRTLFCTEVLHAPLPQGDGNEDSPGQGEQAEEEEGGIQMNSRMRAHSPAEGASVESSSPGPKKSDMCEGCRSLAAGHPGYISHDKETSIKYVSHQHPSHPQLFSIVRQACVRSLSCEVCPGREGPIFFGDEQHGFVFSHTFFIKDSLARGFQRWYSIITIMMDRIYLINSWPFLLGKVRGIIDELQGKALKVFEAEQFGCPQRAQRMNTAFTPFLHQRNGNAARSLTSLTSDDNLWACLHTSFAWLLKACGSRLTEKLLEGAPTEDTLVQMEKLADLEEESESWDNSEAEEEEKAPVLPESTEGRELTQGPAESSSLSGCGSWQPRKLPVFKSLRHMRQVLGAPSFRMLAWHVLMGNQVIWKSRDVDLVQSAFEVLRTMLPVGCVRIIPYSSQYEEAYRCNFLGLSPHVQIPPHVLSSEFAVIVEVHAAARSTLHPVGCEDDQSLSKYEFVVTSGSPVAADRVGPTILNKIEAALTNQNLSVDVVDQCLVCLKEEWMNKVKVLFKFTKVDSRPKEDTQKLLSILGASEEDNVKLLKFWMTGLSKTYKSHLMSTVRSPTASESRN
The test can be described thus: co-immunoprecipitation.

Amino acid sequences for entries named in this document (tags omitted).
UniProt O95166: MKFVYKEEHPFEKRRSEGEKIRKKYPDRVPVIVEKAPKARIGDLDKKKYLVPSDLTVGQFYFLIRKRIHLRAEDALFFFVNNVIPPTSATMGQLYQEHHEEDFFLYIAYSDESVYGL

This note sets out measurements from patent US20230272392A1, “METHODS OF TFEB ACTIVATION AND LYSOSOMAL BIOGENESIS AND COMPOSITIONS THEREFOR” (Casma Therapeutics, Inc., priority 2020, published 2023).

Results are given in words; binding and its absence hold for the method and conditions named. Binding seen in cells or lysates may run through a third protein. Some results given as binding are weak or reduced against the parent protein; the word gives no strength. For part of these data: Sequences can lack the tags named with a protein.

Consider “Human GABARAP WT, N-terminal myc tag (from UniProt O95166 1-117)”, for which the binding result in test [1] is recorded as “binds”.

B1: Human FNIP1 Y583A/V586A, N-terminal 3X HA tag (protein, UniProt Q8TF40 1-1166, looked up, not shown: small tags and cut ends)
chain: MAPTLFQKLFSKRTGLGAPGRDARDPDCGFSWPLPEFDPSQIRLIVYQDCERRGRNVLFDSSVKRRNEDISVSKLGSDAQVKVFGKCCQLKPGGDSSSSLDSSVTSSSDIKDQCLKYQGSRCSSDANMLGEMMFGSVAMSYKGSTLKIHQIRSPPQLMLSKVFTARTGSSICGSLNTLQDSLEFINQDNNTLKADNNTVINGLLGNIGLSQFCSPRRAFSEQGPLRLIRSASFFAVHSNPMDMPGRELNEDRDSGIARSASLSSLLITPFPSPNSSLTRSCASSYQRRWRRSQTTSLENGVFPRWSIEESFNLSDESCGPNPGIVRKKKIAIGVIFSLSKDEDENNKFNEFFFSHFPLFESHMNKLKSAIEQAMKMSRRSADASQRSLAYNRIVDALNEFRTTICNLYTMPRIGEPVWLTMMSGTPEKNHLCYRFMKEFTFLMENASKNQFLPALITAVLTNHLAWVPTVMPNGQPPIKIFLEKHSSQSVDMLAKTHPYNPLWAQLGDLYGAIGSPVRLARTVVVGKRQDMVQRLLYFLTYFIRCSELQETHLLENGEDEAIVMPGTVITTTLEKGEIEESEAVLATMHRNKSSLLFKESEEIRTPNCNCKYCSHPLLGQNVENISQQEREDIQNSSKELLGISDECQMISPSDCQEENAVDVKQYRDKLRTCFDAKLETVVCTGSVPVDKCALSESGLESTEETWQSEKLLDSDSHTGKAMRSTGMVVEKKPPDKIVPASFSCEAAQTKVTFLIGDSMSPDSDTELRSQAVVDQITRHHTKPLKEERGAIDQHQETKQTTKDQSGESDTQNMVSEEPCELPCWNHSDPESMSLFDEYFNDDSIETRTIDDVPFKTSTDSKDHCCMLEFSKILCTKNNKQNNEFCKCIETVPQDSCKTCFPQQDQRDTLSILVPHGDKESSDKKIAVGTEWDIPRNESSDSALGDSESEDTGHDMTRQVSSYYGGEQEDWAEEDEIPFPGSKLIEVSAVQPNIANFGRSLLGGYCSSYVPDFVLQGIGSDERFRQCLMSDLSHAVQHPVLDEPIAEAVCIIADMDKWTVQVASSQRRVTDNKLGKEVLVSSLVSNLLHSTLQLYKHNLSPNFCVMHLEDRLQELYFKSKMLSEYLRGQMRVHVKELGVVLGIESSDLPLLAAVASTHSPYVAQILL
Take B1: in test [2], the binding entry is reported as “binds”.

B2: Human FNIP1 WT, N-terminal 3X HA tag (protein, UniProt Q8TF40 1-1166, looked up, not shown: small tags and cut ends)
chain: MAPTLFQKLFSKRTGLGAPGRDARDPDCGFSWPLPEFDPSQIRLIVYQDCERRGRNVLFDSSVKRRNEDISVSKLGSDAQVKVFGKCCQLKPGGDSSSSLDSSVTSSSDIKDQCLKYQGSRCSSDANMLGEMMFGSVAMSYKGSTLKIHQIRSPPQLMLSKVFTARTGSSICGSLNTLQDSLEFINQDNNTLKADNNTVINGLLGNIGLSQFCSPRRAFSEQGPLRLIRSASFFAVHSNPMDMPGRELNEDRDSGIARSASLSSLLITPFPSPNSSLTRSCASSYQRRWRRSQTTSLENGVFPRWSIEESFNLSDESCGPNPGIVRKKKIAIGVIFSLSKDEDENNKFNEFFFSHFPLFESHMNKLKSAIEQAMKMSRRSADASQRSLAYNRIVDALNEFRTTICNLYTMPRIGEPVWLTMMSGTPEKNHLCYRFMKEFTFLMENASKNQFLPALITAVLTNHLAWVPTVMPNGQPPIKIFLEKHSSQSVDMLAKTHPYNPLWAQLGDLYGAIGSPVRLARTVVVGKRQDMVQRLLYFLTYFIRCSELQETHLLENGEDEAIVMPGTVITTTLEKGEIEESEYVLVTMHRNKSSLLFKESEEIRTPNCNCKYCSHPLLGQNVENISQQEREDIQNSSKELLGISDECQMISPSDCQEENAVDVKQYRDKLRTCFDAKLETVVCTGSVPVDKCALSESGLESTEETWQSEKLLDSDSHTGKAMRSTGMVVEKKPPDKIVPASFSCEAAQTKVTFLIGDSMSPDSDTELRSQAVVDQITRHHTKPLKEERGAIDQHQETKQTTKDQSGESDTQNMVSEEPCELPCWNHSDPESMSLFDEYFNDDSIETRTIDDVPFKTSTDSKDHCCMLEFSKILCTKNNKQNNEFCKCIETVPQDSCKTCFPQQDQRDTLSILVPHGDKESSDKKIAVGTEWDIPRNESSDSALGDSESEDTGHDMTRQVSSYYGGEQEDWAEEDEIPFPGSKLIEVSAVQPNIANFGRSLLGGYCSSYVPDFVLQGIGSDERFRQCLMSDLSHAVQHPVLDEPIAEAVCIIADMDKWTVQVASSQRRVTDNKLGKEVLVSSLVSNLLHSTLQLYKHNLSPNFCVMHLEDRLQELYFKSKMLSEYLRGQMRVHVKELGVVLGIESSDLPLLAAVASTHSPYVAQILL
Consider B2, for which the binding result in test [2] is “binds”.
